Test [1] addresses T1, Mcm4-VC (Saccharomyces cerevisiae) (UniProt P30665).
T1 sequence: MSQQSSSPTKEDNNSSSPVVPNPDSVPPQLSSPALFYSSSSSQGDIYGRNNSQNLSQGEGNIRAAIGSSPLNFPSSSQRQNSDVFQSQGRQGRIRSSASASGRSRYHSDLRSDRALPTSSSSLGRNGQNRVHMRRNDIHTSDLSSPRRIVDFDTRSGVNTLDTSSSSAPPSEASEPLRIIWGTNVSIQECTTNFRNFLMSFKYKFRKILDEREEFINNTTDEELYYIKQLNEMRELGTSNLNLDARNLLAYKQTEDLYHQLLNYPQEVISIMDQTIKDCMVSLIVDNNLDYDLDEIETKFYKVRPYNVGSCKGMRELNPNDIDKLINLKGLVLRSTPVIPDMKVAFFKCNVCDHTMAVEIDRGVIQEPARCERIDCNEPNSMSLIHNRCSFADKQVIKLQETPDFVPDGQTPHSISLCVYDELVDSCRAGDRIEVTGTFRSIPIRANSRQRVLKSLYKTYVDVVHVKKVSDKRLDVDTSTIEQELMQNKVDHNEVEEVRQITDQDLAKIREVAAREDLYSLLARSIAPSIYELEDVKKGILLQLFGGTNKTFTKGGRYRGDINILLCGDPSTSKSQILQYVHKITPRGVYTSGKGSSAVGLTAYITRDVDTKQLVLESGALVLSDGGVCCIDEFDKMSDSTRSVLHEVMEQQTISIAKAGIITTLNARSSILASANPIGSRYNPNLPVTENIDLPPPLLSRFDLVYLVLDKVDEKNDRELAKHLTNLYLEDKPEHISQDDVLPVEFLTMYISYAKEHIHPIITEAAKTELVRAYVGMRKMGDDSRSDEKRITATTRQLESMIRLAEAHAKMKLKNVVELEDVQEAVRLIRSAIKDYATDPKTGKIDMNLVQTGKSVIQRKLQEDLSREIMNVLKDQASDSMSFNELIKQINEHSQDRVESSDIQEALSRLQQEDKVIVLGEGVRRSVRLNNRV
Description: co-IP; anti-Mcm4 antibody (3 μg/ml, overnight 4°C) and protein G dynabeads, NP40 lysis buffer; western blot with anti-Mcm4 and anti-Rnr antibodies; asynchronous cultures treated or not with 0.025% MMS for 2 hours; cells with Mcm4 or Mcm4-VC and Rnr4 or Rnr4-VN, with or without plasmid p314RNR4. (A western blot detects proteins with antibodies after separation by electrophoresis.)

Test [2] concerns the target T2, Mcm4 (Saccharomyces cerevisiae) (UniProt P30665).
T2 sequence: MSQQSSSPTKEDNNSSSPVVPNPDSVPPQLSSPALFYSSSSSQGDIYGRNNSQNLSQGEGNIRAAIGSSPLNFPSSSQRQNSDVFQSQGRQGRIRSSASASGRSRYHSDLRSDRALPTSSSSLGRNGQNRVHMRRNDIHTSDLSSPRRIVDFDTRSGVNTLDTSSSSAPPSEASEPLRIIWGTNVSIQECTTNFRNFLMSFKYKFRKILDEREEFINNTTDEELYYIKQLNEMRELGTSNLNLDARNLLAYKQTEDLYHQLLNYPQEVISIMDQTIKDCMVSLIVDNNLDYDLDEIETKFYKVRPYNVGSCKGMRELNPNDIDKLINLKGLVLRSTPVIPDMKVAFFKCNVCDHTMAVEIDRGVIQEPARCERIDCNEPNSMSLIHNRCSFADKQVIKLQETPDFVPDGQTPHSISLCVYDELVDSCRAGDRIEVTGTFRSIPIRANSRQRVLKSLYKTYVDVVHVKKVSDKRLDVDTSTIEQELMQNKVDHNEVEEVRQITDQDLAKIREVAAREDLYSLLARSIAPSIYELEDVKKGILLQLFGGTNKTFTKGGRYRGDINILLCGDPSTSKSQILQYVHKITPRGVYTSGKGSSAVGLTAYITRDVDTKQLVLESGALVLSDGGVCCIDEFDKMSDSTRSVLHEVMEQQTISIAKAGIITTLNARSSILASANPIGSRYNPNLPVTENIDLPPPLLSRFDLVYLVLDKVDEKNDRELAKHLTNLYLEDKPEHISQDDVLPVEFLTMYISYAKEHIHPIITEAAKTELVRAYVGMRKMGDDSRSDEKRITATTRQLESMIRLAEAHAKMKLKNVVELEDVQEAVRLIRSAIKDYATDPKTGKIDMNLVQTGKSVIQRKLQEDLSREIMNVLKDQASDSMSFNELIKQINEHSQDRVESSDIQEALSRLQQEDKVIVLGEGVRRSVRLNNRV
Described as above.

The target in test [3] is T3, Mcm4-GFP (Saccharomyces cerevisiae) (UniProt P30665).
T3 sequence: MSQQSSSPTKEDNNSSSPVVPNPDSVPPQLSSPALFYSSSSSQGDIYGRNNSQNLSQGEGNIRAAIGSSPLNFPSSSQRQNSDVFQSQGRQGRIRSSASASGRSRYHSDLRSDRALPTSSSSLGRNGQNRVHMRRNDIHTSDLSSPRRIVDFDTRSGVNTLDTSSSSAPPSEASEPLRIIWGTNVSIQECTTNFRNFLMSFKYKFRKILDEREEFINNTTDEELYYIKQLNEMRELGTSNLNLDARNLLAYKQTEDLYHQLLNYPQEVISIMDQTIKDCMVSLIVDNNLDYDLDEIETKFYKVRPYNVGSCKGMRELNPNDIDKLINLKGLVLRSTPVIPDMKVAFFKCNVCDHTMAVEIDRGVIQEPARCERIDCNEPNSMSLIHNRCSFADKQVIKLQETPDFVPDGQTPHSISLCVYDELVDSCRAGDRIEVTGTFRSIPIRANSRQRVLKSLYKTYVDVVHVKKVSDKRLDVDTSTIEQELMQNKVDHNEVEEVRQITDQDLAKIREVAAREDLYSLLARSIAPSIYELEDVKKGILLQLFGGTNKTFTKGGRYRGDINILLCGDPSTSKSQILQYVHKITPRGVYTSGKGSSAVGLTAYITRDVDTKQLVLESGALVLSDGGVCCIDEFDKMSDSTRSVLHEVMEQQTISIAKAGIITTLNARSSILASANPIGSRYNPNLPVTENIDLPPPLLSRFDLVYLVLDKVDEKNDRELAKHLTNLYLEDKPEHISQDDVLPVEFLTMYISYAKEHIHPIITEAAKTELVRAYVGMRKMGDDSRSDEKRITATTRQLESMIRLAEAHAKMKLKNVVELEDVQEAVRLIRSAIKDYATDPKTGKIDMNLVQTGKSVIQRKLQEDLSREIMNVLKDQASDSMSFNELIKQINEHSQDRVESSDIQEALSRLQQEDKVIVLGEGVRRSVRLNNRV
Description: co-IP; GFP-trap magnetic beads, NP40 lysis buffer (50mM Tris pH 7.5, 150mM NaCl, 1% NP40), lysate treated with MNaseI or benzonase, overnight 4°C; western blot; asynchronous or G1-arrested cultures treated or not with 0.025% MMS (or 0.2M HU) for 2 hours; also in rnr4Δ and dif1Δ wtm1Δ cells.

Test [4] has as its target T1, Mcm4-VC (Saccharomyces cerevisiae). Briefly: split reporter; BiFC with the VN and VC domains of Venus on endogenously tagged proteins; fluorescence microscopy and flow cytometry of yeast cells synchronized in G1 and released, with and without 0.025% MMS; also in dif1Δ wtm1Δ cells. (Flow cytometry measures light scatter and fluorescence of single cells or particles in a stream.)

For test [5], the target named is T4, Mcm7 (Saccharomyces cerevisiae) (UniProt P38132).
T4 sequence: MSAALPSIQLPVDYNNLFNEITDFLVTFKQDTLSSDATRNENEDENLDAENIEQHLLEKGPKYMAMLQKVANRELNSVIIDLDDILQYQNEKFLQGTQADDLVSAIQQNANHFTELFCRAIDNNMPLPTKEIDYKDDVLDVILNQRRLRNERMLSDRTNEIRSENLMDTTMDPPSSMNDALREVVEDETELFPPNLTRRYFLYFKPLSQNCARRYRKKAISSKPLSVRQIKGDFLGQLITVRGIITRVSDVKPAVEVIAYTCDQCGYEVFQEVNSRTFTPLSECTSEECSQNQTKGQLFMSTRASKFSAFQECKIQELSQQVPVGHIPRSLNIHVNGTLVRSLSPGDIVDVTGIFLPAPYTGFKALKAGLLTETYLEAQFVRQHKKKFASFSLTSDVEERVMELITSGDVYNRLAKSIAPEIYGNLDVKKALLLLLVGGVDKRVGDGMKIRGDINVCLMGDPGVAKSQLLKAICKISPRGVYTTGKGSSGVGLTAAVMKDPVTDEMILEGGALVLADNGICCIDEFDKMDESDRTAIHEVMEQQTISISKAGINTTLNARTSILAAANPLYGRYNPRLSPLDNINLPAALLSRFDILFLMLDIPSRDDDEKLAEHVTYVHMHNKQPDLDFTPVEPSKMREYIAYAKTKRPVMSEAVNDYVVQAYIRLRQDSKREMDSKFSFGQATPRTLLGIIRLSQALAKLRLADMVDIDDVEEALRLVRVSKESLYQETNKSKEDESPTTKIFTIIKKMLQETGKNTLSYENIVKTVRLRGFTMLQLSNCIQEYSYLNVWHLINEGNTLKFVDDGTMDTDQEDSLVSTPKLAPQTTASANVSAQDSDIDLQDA
Briefly: co-IP; anti-Mcm7 antibody and protein G dynabeads; asynchronous cultures of wild-type cells.

Test [6] deals with T4, Mcm7 (Saccharomyces cerevisiae). Description: co-IP; anti-Mcm7 antibody and protein G dynabeads; asynchronous cultures of the MCM4-VC mutant.
Test [7] deals with T3, Mcm4-GFP (Saccharomyces cerevisiae). Description: co-IP; as a2, in dun1Δ cells, in the absence and presence of 0.025% MMS.
In test [8] the target is T4, Mcm7 (Saccharomyces cerevisiae). Description: co-IP; anti-Mcm7 antibody and protein G dynabeads; asynchronous cultures of the MCM4-VC mutant. This is another data set of the same source.
In test [9] the target is T3, Mcm4-GFP (Saccharomyces cerevisiae). Description: co-IP; as a2, GFP-trap magnetic beads, asynchronous cultures under unperturbed conditions only (no MMS, no HU).

No constants are given. Whether binding was seen depends on the method and setting. Binding seen in cells or lysates may run through a third protein. Some entries that bind do so weakly or less than the wild type. Tags and fused reporters may be left off the sequences shown.

B1: Rnr3 (protein, UniProt P21672 1-869)
chain: MYVIKRDGRKEPVQFDKITSRITRLSYGLDPNRIDAVKVTQRIISGVYSGVTTVELDNLAAETCAYMTTVHPDYATLAARIAISNLHKQTTKQFSKVIEDLHDWINPATGKHAPMISDEIYNIVMENKDTLNSAIVYDRDFQYTYFGFKTLERSYLLRLNGEVAERPQHLVMRVALGIHGSDIESVLKTYNLMSLRYFTHASPTLFNAGTPHPQMSSCFLIAMKDDSIEGIYDTLKECAMISKTAGGVGLHINNIRSTGSYIAGTNGTSNGLIPMIRVFNNTARYVDQGGNKRPGAFALFLEPWHADIFDFVDIRKTHGKEEIRARDLFPALWIPDLFMKRVQEDGPWTLFSPSAAPGLDDVWGDEFEELYTRYEREGRGKTIKAQKLWYAILQAQTETGTPFMVYKDACNRKTNQQNLGTIKSSNLCCEIVEYSSPDETAVCNLASIALPAFVEVSEDGKTASYNFERLHEIAKVITHNLNRVIDRNYYPVPEARNSNMKHRPIALGVQGLADTYMMLRLPFESEEAQTLNKQIFETIYHATLEASCELAQKEGKYSTFEGSPASKGILQFDMWNAKPFGMWDWETLRKDIVKHGLRNSLTMAPMPTASTSQILGYNECFEPVTSNMYSRRVLSGEFQVVNPYLLRDLVDLGIWDDSMKQYLITQNGSIQGLPNVPQELKELYKTVWEISQKTIINMAADRAIYIDQSHSLNLFLQAPSMGKITSMHFYGWKKGLKTGMYYLRTQAASAAIQFTIDQEVADQAATHIASVSELDRPVYVPKGTKFSEQKAASALTESSDNEKDASPVPSEQSSVSSAMSNVKLEDSVAPAVPTETIKEDSDEKKCDIYNEKVIACTAPTPEACESCSG
Turning to B1, the binding result in test [1], in test [2] and in test [3] was “binds” throughout.

B2: Rnr4-VN (protein, UniProt P49723 1-345)
chain: MEAHNQFLKTFQKERHDMKEAEKDEILLMENSRRFVMFPIKYHEIWAAYKKVEASFWTAEEIELAKDTEDFQKLTDDQKTYIGNLLALSISSDNLVNKYLIENFSAQLQNPEGKSFYGFQIMMENIYSEVYSMMVDAFFKDPKNIPLFKEIANLPEVKHKAAFIERWISNDDSLYAERLVAFAAKEGIFQAGNYASMFWLTDKKIMPGLAMANRNICRDRGAYTDFSCLLFAHLRTKPNPKIIEKIITEAVEIEKEYYSNSLPVEKFGMDLKSIHTYIEFVADGLLQGFGNEKYYNAVNPFEFMEDVATAGKTTFFEKKVSDYQKASDMSKSATPSKEINFDDDF
Turning to B2, the binding entry in [1], in test [2] and in test [4] was “binds” in each case.

B3: Rnr1 (protein, UniProt P21524 1-888)
chain: MYVYKRDGRKEPVQFDKITARISRLCYGLDPKHIDAVKVTQRIISGVYEGVTTIELDNLAAETCAYMTTVHPDYATLAARIAISNLHKQTTKQFSKVVEDLYRYVNAATGKPAPMISDDVYNIVMENKDKLNSAIVYDRDFQYSYFGFKTLERSYLLRINGQVAERPQHLIMRVALGIHGRDIEAALETYNLMSLKYFTHASPTLFNAGTPKPQMSSCFLVAMKEDSIEGIYDTLKECALISKTAGGIGLHIHNIRSTGSYIAGTNGTSNGLIPMIRVFNNTARYVDQGGNKRPGAFALYLEPWHADIFDFIDIRKNHGKEEIRARDLFPALWIPDLFMKRVEENGTWTLFSPTSAPGLSDCYGDEFEALYTRYEKEGRGKTIKAQKLWYSILEAQTETGTPFVVYKDACNRKSNQKNLGVIKSSNLCCEIVEYSAPDETAVCNLASVALPAFIETSEDGKTSTYNFKKLHEIAKVVTRNLNRVIDRNYYPVEEARKSNMRHRPIALGVQGLADTFMLLRLPFDSEEARLLNIQIFETIYHASMEASCELAQKDGPYETFQGSPASQGILQFDMWDQKPYGMWDWDTLRKDIMKHGVRNSLTMAPMPTASTSQILGYNECFEPVTSNMYSRRVLSGEFQVVNPYLLRDLVDLGIWDEGMKQYLITQNGSIQGLPNVPQELKDLYKTVWEISQKTIINMAADRSVYIDQSHSLNLFLRAPTMGKLTSMHFYGWKKGLKTGMYYLRTQAASAAIQFTIDQKIADQATENVADISNLKRPSYMPSSASYAASDFVPAAVTANATIPSLDSSSEASREASPAPTGSHSLTKGMAELNVQESKVEVPEVPAPTKNEEKAAPIVDDEETEFDIYNSKVIACAIDNPEACEMCSG
With B3, the binding entry is “binds” in test [5]; “no binding (condition: in cells of the MCM4-VC mutant)” in test [6]; “binds” in test [1]; “binds” in [2]; “binds” in [7]; “binds” in test [8]. Moreover, the figures for the binding entry in test [3] and in test [9] were “binds” and “binds weakly”, respectively.

These data come from paper PMC11149843.
